# According to PMC5967302:
# Results are given in words; binding and its absence hold for the method and conditions named. Binding seen in cells or lysates may run through a third protein. Some binding calls cover weakened binding; strength is not graded here. Tags and fused reporters may be left off the sequences shown.
# T1: CDC50A-FLAG (mouse) (UniProt Q8VEK0)
# T1 sequence: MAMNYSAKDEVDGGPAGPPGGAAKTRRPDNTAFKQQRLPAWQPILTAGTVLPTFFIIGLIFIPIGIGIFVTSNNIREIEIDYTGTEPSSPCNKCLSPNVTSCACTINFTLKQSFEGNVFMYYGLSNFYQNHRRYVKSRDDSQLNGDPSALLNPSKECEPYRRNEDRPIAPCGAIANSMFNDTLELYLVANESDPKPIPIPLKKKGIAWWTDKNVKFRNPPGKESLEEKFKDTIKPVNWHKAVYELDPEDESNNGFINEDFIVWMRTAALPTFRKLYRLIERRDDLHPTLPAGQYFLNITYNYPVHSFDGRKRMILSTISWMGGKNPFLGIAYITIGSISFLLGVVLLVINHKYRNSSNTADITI
# Target: T1, CDC50A-FLAG (mouse)
# Assay: co-IP; HEK293 cells co-transfected with pEGFP-P4-ATPases and pCDC50A-FLAG; lysis in 150 mM NaCl, 50 mM Tris pH 7.4, 1% Triton X-100; anti-FLAG M2 affinity gel 30 min on ice; washed with 0.1% Triton X-100/TBS; eluted with FLAG peptide; immunoblot
row,Binder,binding
1,"EGFP-ATP8B1 (protein, UniProt Q148W0 1-1251) MSTERDSETTFDEESQPNDEVVPYSDDETEDELEDQGSTVEPEQNRVNREAEKKRETFRKDCTWQVKANDRKFHEQPHFMNTKFFCIKESKYASNAIKTYKYNGFTFLPMNLFEQFKRAANFYFLILLILQAIPQISTLAWYTTLVPLLLVLGITAIKDLVDDVARHKMDKEINNRTCEVIKDGRFKIIKWKDIQVGDVIRLKKNDFIPADILLLSSSEPNSLCYVETAELDGETNLKFKMALEITDQYLQIEDNLATFDGFIECEEPNNRLDKFTGTLFWKNQSFPLDADKILLRGCVIRNTDVCHGLVIFAGADTKIMKNSGKTRFKRTKIDYLMNYMVYTIFIVLILVSAGLAIGHAYWEAQVGNYSWYLYDGENATPSYRGFLNFWGYIIVLNTMVPISLYVSVEVIRLGQSHFINWDLQMYYAEKDTPAKARTTTLNEQLGQIHYIFSDKTGTLTQNIMTFKKCCINGTIYGDHRDASQHSHSKIELVDFSWNTFADGKLAFYDHYLIEQIQSGKEPEVRQFFFLLSICHTVMVDRIDGQINYQAASPDEGALVNAARNFGFAFLARTQNTITVSELGSERTYNVLAILDFNSDRKRMSIIVRTPEGSIRLYCKGADTVIYERLHRMNPTKQETQDALDIFASETLRTLCLCYKEIEEKEFTEWNNKFMAASVASSNRDEALDKVYEEIEKDLILLGATAIEDKLQDGVPETISKLAKADIKIWVLTGDKKETAENIGFACELLTEDTTICYGEDINSLLHTRMENQRNRGGVSAKFAPPVYEPFFPPGENRALIITGSWLNEILLEKKTKRSKILKLKFPRTEEERRMRSQSRRRLEEKKEQRQKNFVDLACECSAVICCRVTPKQKAMVVDLVKRYKKAITLAIGDGANDVNMIKTAHIGVGISGQEGMQAVMSSDYSFAQFRYLQRLLLVHGRWSYIRMCKFLRYFFYKNFAFTLVHFWYSFFNGYSAQTAYEDWFITLYNVLYSSLPVLLMGLLDQDVSDKLSLRFPGLYVVGQRDLLFNYKRFFVSLLHGVLTSMVLFFIPLGAYLQTVGQDGEAPSDYQSFAVTVASALVITVNFQIGLDTSYWTFVNAFSIFGSIALYFGIMFDFHSAGIHVLFPSAFQFTGTASNALRQPYIWLTIILTVAVCLLPVVAIRFLSMTIWPSESDKIQKHRKRLKAEEQWKRRQSVFRRGVSSRRSAYAFSHQRGYADLISSGRSIRKKRSPLDAIIADGTAEYRRTVES",binds
2,"EGFP-ATP8B2 (protein, UniProt P98199 1-1209) MTVPKEIPEKWARAGAPPSWSQKKPSWGTEEERRARANDREYNEKFQYASNCIKTSKYNIVTFLPVNLFEQFQEVANTYFLFLLILQLIPQISSLSWFTTIVPLVLVLTITAVKDATDDYFRHKSDNQVNNRHSQVLINGVLQQEQWMNVCVGDIIKLENNQFVAADLLLLSSSEPHGLCYIETAELDGETNMKVRQAIPVTSELGDVSQLARFDGEVICEPPNNKLDKFSGTLYWKENKFPLSNQNMLLRGCVLRNTEWCFGLVIFAGPDTKLMQNSGRTKFKRTSIDRLMNTLVLWIFGFLVCMGVILAIGNAIWEHEVGTRFQVYLPWDEAVDSAFFSGFLSFWSYIIILNTVVPISLYVSVEVIRLGHSYFINWDKKMFCMKKRTPAEARTTTLNEELGQVEYIFSDKTGTLTQNIMVFNKCSINGHSYGDVFDVLGHKAELGERPEPVDFSFNPLADKKFLFWDSSLLEAVKMGDPHTHEFFRLLSLCHTVMSEEKNEGELYYKAQSPDEGALVTAARNFGFVFRSRTPKTITVHELGTAITYQLLAILDFNNIRKRMSVIVRNPEGKIRLYCKGADTILLDRLHPPTQELLSSTTDHLNEYAGDGLRTLVLAYKDLDEEYYEEWARRRLQASLAQDSREDRLASIYEEVESDMMLLGATAIEDKLQQGVPETIALLTLANIKIWVLTGDKQETAVNIGYSCKMLTDDMTEVFVVTGHTVLEVREELRKARKKMVDSSHAVGNGFTYQGNLSSSKLTSVLEAVAGEYALVINGHSLAHALEADMELEFLETACACKAVICCRVTPLQKAQVVELVKKYKKAVTLAIGDGANDVSMIKTAHIGVGISGQEGIQAVLASDYSFSQFKFLQRLLLVHGRWSYLRMCKFLCYFFYKNFAFTMVHFWFGFFCGFSAQTVYDQYFITLYNIVYTSLPVLAMGVFDQDVPEQRSMEYPKLYEPGQLNLLFNKREFFICIAQGIYTSVLMFFIPYGVFAEATRDDGTQLADYQSFAVTVATSLVIVVSVQIGLDTGYWTAINHFFIWGSLAVYFAILFAMHSNGLFDMFPNQFRFVGNAQNTLAQPTVWLTIALTTAVCIMPVVAFRFLRLSLKPDLSDTVRYTQLVRKKQKAQHRCMRRVGRTGSRRSGYAFSHQEGFGELIMSGKNMRLSSLALSSFSTRSSSSWIESLRRKKSDSANSPSGGAEKPLKG",binds

# Further lines, results first:
row,binding,Binder
1,binds,"EGFP-ATP11A (protein, UniProt P98197 1-1187) MDCSLLRTLVRRYCAGEENWVDSRTIYVGHKEPPPGAEAYIPQRYPDNRIVSSKYTFWNFIPKNLFEQFRRIANFYFLIIFLVQLIIDTPTSPVTSGLPLFFVITVTAIKQGYEDWLRHKADNAMNQCPVHFIQHGKLVRKQSRKLRVGDIVMVKEDETFPCDLIFLSSNRADGTCHVTTASLDGESSHKTHYAVQDTKGFHTEADVDSLHATIECEQPQPDLYKFVGRINVYNDLNDPVVRPLGSENLLLRGATLKNTEKIFGVAIYTGMETKMALNYQSKSQKRSAVEKSMNTFLIVYLCILVSKALINTVLKYVWQSEPFRDEPWYNEKTESERQRNLFLRAFTDFLAFMVLFNYIIPVSMYVTVEMQKFLGSYFITWDEDMFDEEMGEGPLVNTSDLNEELGQVEYIFTDKTGTLTENNMAFKECCIEGHVYVPHVICNGQVLPDSSGIDMIDSSPGVCGREREELFFRAICLCHTVQVKDDHCGDDVDGPQKSPDAKSCVYISSSPDEVALVEGVQRLGFTYLRLKDNYMEILNRENDIERFELLEVLTFDSVRRRMSVIVKSTTGEIYLFCKGADSSIFPRVIEGKVDQVRSRVERNAVEGLRTLCVAYKRLEPEQYEDACRLLQSAKVALQDREKKLAEAYEQIEKDLVLLGATAVEDRLQEKAADTIEALQKAGIKVWVLTGDKMETASATCYACKLFRRSTQLLELTTKKLEEQSLHDVLFDLSKTVLRCSGSMTRDSFSGLSTDMHDYGLIIDGAALSLIMKPREDGSSSGNYRELFLEICRNCSAVLCCRMAPLQKAQIVKLIKFSKEHPITLAIGDGANDVSMILEAHVGIGVIGKEGRQAARNSDYAIPKFKHLKKMLLVHGHFYYIRISELVQYFFYKNVCFIFPQFLYQFFCGFSQQTLYDTAYLTLYNISFTSLPILLYSLMEQHVGIDVLKRDPTLYRDIAKNALLRWRVFIYWTFLGVFDALVFFFGAYFIFENTTVTINGQMFGNWTFGTLVFTVMVLTVTLKLALDTHYWTWINHFVIWGSLLFYIAFSLLWGGVIWPFLSYQRMYYVFISMLSSGPAWLGIILLVTVGLLPDVLKKVLCRQLWPTATERTQNIQHQDSISEFTPLASLPSWGAQGSRLLAAQCSSPSGRVVCSRWESEECPVLPLHPGLPHKARYGCCRSSLEMPT"
2,binds,"EGFP-ATP11C (protein, UniProt Q9QZW0 1-1129) MFRRTLNRLCAGEEKRVGTRTVFVGNHPISGTEPYIAQRFCDNRIVSSKYTLWNFLPKNLFEQFRRIANFYFLIIFLVQVTVDTPTSPVTSGLPLFFVITVTAIKQGYEDWLRHRADNEVNKSAVYIIENAKRVRKESEKIKVGDVVEVQANETFPCDLILLSSCTTDGTCYVTTASLDGESNCKTHYAVRDTIALCTAESIDNLRATIECEQPQPDLYRFVGRISIYSNSIEAVARSLGPENLLLKGATLKNTKKIYGVAVYTGMETKMALNYQGKSQKCSAVEKSINAFLIVYLFILLTKAAVCTTLKYVWQSSPYNDEPWYNQKTQKERETFQVLKMFTDFLSFMVLFNFIIPVSMYVTVEMQKFLGSFFISWDKDFFDEEINEGALVNTSDLNEELGQVDYVFTDKTGTLTENSMEFIECCIDGHKYKGTTQEVDGLSQTDGPLAYFDKADKNREALFLRALCLCHTVEMKTNDDVDGPVEGAGFTYISSSPDEIALVKGAKRFGFTFLGNQNGYIRVENQRKEIEEYELLHTLNFDSVRRRMSVIVRTQKGDILLFCKGADSSIFPRVHSHQIELTKDHVERNAMDGYRTLCVAFKEIPPDDFERINAQLVEAKMALQDREEKLEKVFDEIETNMNLIGATAVEDKLQDQAAETIEALHAAGLKVWVLTGDKMETAKSTCYACRLFQTNTELLELTTKTIEESERKEDRLHELLIEYRKKLLHEFPKSTRSLKKAWTEHQEYGLIIDGSTLSLILNSSQDCSSNNYKSIFLQICMKCTAVLCCRMAPLQKAQIVRMVKNLKGSPITLSIGDGANDVSMILESHVGIGIKGKEGRQAARNSDYSVPKFKHLKKLLLVHGHLYYVRIAHLVQYFFYKNLCFILPQFLYQFFCGFSQQPLYDAAYLTMYNICFTSLPILAYSLLEQHINIDTLTADPRLYMKITGNAMLQLGPFLHWTFLAAFEGTVFFFGTYFLFQTSSLEDNGKIYGNWTFGTIVFTVLVFTVTLKLALDTRFWTWINHFVIWGSLAFYVFFSFFWGGIIWPFLKQQRMYFVFAQMLCSVSTWLAIILLIFISLFPEILLIVVKNVRRRSARRNLSCRRASDSLSARPSVRPLLLRTFSDESNIL"
3,binds,"EGFP-ATP11B (protein, UniProt Q6DFW5 1-1175) MWRWVRQQLGFDPPHQSDTRTIYIANRFPQNGLYTPQKFIDNRIISSKYTIWNFVPKNLFEQFRRVANFYFLIIFLVQLMIDTPTSPITSGLPLFFVITVTAIKQGYEDWLRHNSDNEVNGAPVYVVRSGGLVKTRSKNIRVGDIVRIAKDEIFPADLVLLSSDRLDGSCHVTTASLDGETNLKTHVSVPETAVLQTVANLDSLIAVIECQQPEADLYRFMGRMIITQQMEEIVRPLGPESLLLRGARLKNTKEIFGVAVYTGMETKMALNYKSKSQKRSAVEKSMNTFLIIYLIILISEAIISTILKYTWQAEEKWDEPWYNQKTEHQRNSSKILRFISDFLAFLVLYNFIIPISLYVTVEMQKFLGSFFIGWDLDLYHEESDQKAQVNTSDLNEELGQVEYVFTDKTGTLTENEMQFRECSINGLKYQEINGKLVPEGPSPDSTEGEVPFLGSLSHLSNSAHLTATSLRTSPESETELIKEHDLFFKAVSLCHTVQISNVQTDGIGDGPWQPNLAPAQLEYYASSPDEKALVEAAARAGIIFVGISEETMEVKVLGRLERYKLLHILEFDSDRRRMSVIVQAPSGEKLLFAKGAESSILPKCIGGEIAKTRIHVDEFALKGLRTLCIAYRQFTAKEYEDVDRRLFEARTALQHREEKLADAFQYIEKDLILLGATAVEDRLQDKVRETIEALRMAGIKVWVLTGDKHETAVSVSLSCGHFHRTMNILELINQKSDSGCAEQLRQLARRITEDHVIQHGLVVDGTSLSLALREHEKLFMEVCRNCSAVLCCRMAPLQKAKVIRLIKISPEKPITLAVGDGANDVSMIQEAHVGIGIMGKEGRQAARNSDYAIARFKFLSKLLFVHGHFYYIRIATLVQYFFYKNVCFITPQFLYQFYCLFSQQTLYDSVYLTLYNICFTSLPVLIYSLVEQHIDPHVLQSKPTLYRDISKNGLLSIKAFLYWTVLGFSHAFIFFFGSYFLVGKDTSLLGNGQMFGNWTFGTLVFTVMVITVTVKMALETHFWTWINHLVTWGSIIFYFIFSLFYGGILWPFLGSQNMYFVFIQLLSSGSAWFAILLMVVTCLFIDVVKKVFDRQLHPTSTEKAQLAEAHSSVKCLDSVCCFPGETPCASVGRMLERVIGRCSPNHISRLWNASDPFYTNDRSILTLSPMDSSTC"
